# The other results are listed elsewhere or left out.
# B1: XTP3-B-MRH1 (Homo sapiens), Q96DZ1 (protein)
# chain: LLEPLFKQSSCSYRIESYWTYEVCHGKHIRQYHEEKETGQKINIHEYYLGNMLAKNLLFEKEREAEEKEKSNEIPTKNIEGQMTPYYPVGMGNGTPCSLKQNRPRSSTVMYICHPESKHEILSVAEVTTCEYEVVILTPLLCSHPKYRFRA
# How the values were obtained:
# Experiment in all cases: glycan array binding signal (z-score within array); higher = stronger binding
# Conditions in all cases: glycan notation: IUPAC condensed, linker removed
# [1] = target: Neu5Ac(a2-3)Gal(b1-4)[Fuc(a1-3)]GlcNAc(b1-3)Gal
# Method in brief: (§1)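 Arrays were curated from the Consortium for Functional Glycomics database, 3228 in total, and kept only where the protein sequence was available. Binding is expressed as a within-array Z-score. This score was averaged across arrays of the same protein sequence at different concentrations or buffers and across linkers, and negative values can be read as non-binding.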
# [2] = target: Neu5Ac(a2-3)Gal(b1-4)[Fuc(a1-3)]GlcNAc(b1-3)Gal(b1-4)GlcNAc
# Method in brief: as §1
# [3] = target: Neu5Ac(a2-3)Gal(b1-4)[Fuc(a1-3)]GlcNAc(b1-3)Gal(b1-4)[Fuc(a1-3)]GlcNAc(b1-3)Gal(b1-4)[Fuc(a1-3)]GlcNAc
# Method in brief: as §1
# [4] = target: Neu5Ac(a2-3)Gal(b1-4)[Fuc(a1-3)]GlcNAc(b1-3)GalNAc
# Method in brief: as §1
# [5] = target: Neu5Ac(a2-3)Gal(b1-4)[Fuc(a1-3)]GlcNAc(b1-6)[Gal(b1-3)]GalNAc
# Method in brief: as §1
# [6] = target: Neu5Ac(a2-3)Gal(b1-4)[Fuc(a1-3)]GlcNAc(b1-6)[Neu5Ac(a2-3)Gal(b1-3)]GalNAc
# Method in brief: as §1
# [7] = target: Neu5Ac(a2-3)Gal(b1-4)[Fuc(a1-3)]GlcNAc6S
# Method in brief: as §1
# [8] = target: Neu5Ac(a2-3)Gal6S(b1-4)GlcNAc
# Method in brief: as §1
# [9] = target: Neu5Ac(a2-3)Gal6S(b1-4)[Fuc(a1-3)]GlcNAc
# Method in brief: as §1
# [10] = target: Neu5Ac(a2-3)GalNAc
# Method in brief: as §1
# [11] = target: Neu5Ac(a2-3)GalNAc(b1-4)GlcNAc
# Method in brief: as §1
# [12] = target: Neu5Ac(a2-3)[GalNAc(b1-4)]Gal(b1-4)Glc
# Method in brief: as §1
# [13] = target: Neu5Ac(a2-3)[GalNAc(b1-4)]Gal(b1-4)GlcNAc
# Method in brief: as §1
# [14] = target: Neu5Ac(a2-3)[GalNAc(b1-4)]Gal(b1-4)GlcNAc(b1-3)GalNAc
# Method in brief: as §1
# [15] = target: Neu5Ac(a2-3)[Neu5Ac(a2-6)]GalNAc
# Method in brief: as §1
# [16] = target: Neu5Ac(a2-6)Gal
# Method in brief: as §1
# [17] = target: Neu5Ac(a2-6)Gal(b1-3)GlcNAc(b1-3)[Gal(b1-4)GlcNAc(b1-6)]Gal(b1-4)Glc
# Method in brief: as §1
# [18] = target: Neu5Ac(a2-6)Gal(b1-4)Glc
# Method in brief: as §1
# [19] = target: Neu5Ac(a2-6)Gal(b1-4)GlcNAc
# Method in brief: as §1
# [20] = target: Neu5Ac(a2-6)Gal(b1-4)GlcNAc(b1-2)Man
# Method in brief: as §1
# [21] = target: Neu5Ac(a2-6)Gal(b1-4)GlcNAc(b1-2)Man(a1-3)Man(b1-4)GlcNAc(b1-4)GlcNAc
# Method in brief: as §1
# [22] = target: Neu5Ac(a2-6)Gal(b1-4)GlcNAc(b1-2)Man(a1-3)[Gal(b1-4)GlcNAc(b1-2)Man(a1-6)]Man(b1-4)GlcNAc(b1-4)GlcNAc
# Method in brief: as §1
# [23] = target: Neu5Ac(a2-6)Gal(b1-4)GlcNAc(b1-2)Man(a1-3)[GlcNAc(b1-2)Man(a1-6)]Man(b1-4)GlcNAc(b1-4)GlcNAc
# Method in brief: as §1
binder,measurement,setting,value
B1,glycan array binding signal (z-score),[1],0.417
same,glycan array binding signal (z-score),[2],1.37
same,glycan array binding signal (z-score),[3],-0.381
same,glycan array binding signal (z-score),[4],2.68
same,glycan array binding signal (z-score),[5],-0.365
same,glycan array binding signal (z-score),[6],1.34
same,glycan array binding signal (z-score),[7],-0.16
same,glycan array binding signal (z-score),[8],0.185
same,glycan array binding signal (z-score),[9],-0.569
same,glycan array binding signal (z-score),[10],-1.08
same,glycan array binding signal (z-score),[11],-0.164
same,glycan array binding signal (z-score),[12],-0.491
same,glycan array binding signal (z-score),[13],-0.172
same,glycan array binding signal (z-score),[14],-1.31
same,glycan array binding signal (z-score),[15],0.205
same,glycan array binding signal (z-score),[16],0.933
same,glycan array binding signal (z-score),[17],-1.11
same,glycan array binding signal (z-score),[18],1.31
same,glycan array binding signal (z-score),[19],0.75
same,glycan array binding signal (z-score),[20],1.44
same,glycan array binding signal (z-score),[21],2.43
same,glycan array binding signal (z-score),[22],-0.887
same,glycan array binding signal (z-score),[23],0.279

# Part of the list above, reformatted:
binder | measurement | setting | value
B1 | glycan array binding signal (z-score) | [4] | 2.68
same | glycan array binding signal (z-score) | [15] | 0.205
